Data from patent US10047050B2, “3,4-di-substituted pyridine compound, methods of using and compositions comprising the same” (ARDEA BIOSCIENCES, INC., priority 2011, dated 2018).
Values joined by “and” are separate entries in the source; they are usually repeats but may differ in a detail not shown here. Equal values may be shown once. Further values from the same series stand in other lists.

System: serum uric acid
Experiment: Single-dose Phase I clinical trial, serum uric acid (sUA) 0-72 hours post-dose
Assay type: in vivo, human
Conditions: individual subjects 3-8
Procedure: A Phase 1, Randomized, Double-Blind, Placebo-Controlled Study to Evaluate Safety, Tolerability, Pharmacokinetics and Preliminary Food Effect of Single Doses of a URAT1 Inhibitor, in Healthy Adult Male Volunteers.
To assess safety, tolerability, pharmacokinetics and uricosuric effects after oral administration as single doses of a tablet formulation and the effect of food on bioavailability.
Subjects receive a single, oral dose of active or placebo, at the following doses:
Group 4: 20 mg (fasted) [sentinel dosing];
48 subjects in 6 dose groups, 8 subjects/group, are randomized 3:1 to receive active (6/group) or placebo (2/group). All study procedures are the same regardless of whether subject receives active or placebo. The total duration of subject participation, including screening period, is ˜2-4 weeks, and the total volume of blood collected from each subject during the entire study <500 mL, (less than typically collected during a volunteer blood donation).
5 mg and 20 mg, active and placebo, tablets packaged in 35 count HDPE bottles, stored at controlled room temperature (15-30° C.). Placebo tablets are designed to match the active tablets—identical size, form, taste, and color, and containing the same excipients. 2 mg was dosed as an oral solution.
Subjects dosed on the morning of Day 1 with ˜240 mL of room temp water.
Fasted: subjects are dosed after overnight fast >10 hours and remain fasted until >4 hours post-dose.
Fed: subjects fast overnight for >10 hours, then are dosed 30 mins after completing standard moderate fat breakfast (no high fructose corn syrup).
Serum samples are collected at:
PD samples are frozen (−20° C.) and stored; all samples from a given subject assayed in a single analytical run.

[1] = Group 4, 20 mg single oral dose, fasted, 36 h post-dose
[2] = Group 4, 20 mg single oral dose, fasted, 48 h post-dose
[3] = Group 4, 20 mg single oral dose, fasted, 54 h post-dose
[4] = Group 4, 20 mg single oral dose, fasted, 60 h post-dose
[5] = Group 4, 20 mg single oral dose, fasted, 72 h post-dose
[6] = Group 5, 20 mg single oral dose, fed, 0 h (baseline)
[7] = Group 5, 20 mg single oral dose, fed, 6 h post-dose
[8] = Group 5, 20 mg single oral dose, fed, 12 h post-dose
[9] = Group 5, 20 mg single oral dose, fed, 24 h post-dose
[10] = Group 5, 20 mg single oral dose, fed, 30 h post-dose
[11] = Group 5, 20 mg single oral dose, fed, 36 h post-dose
[12] = Group 5, 20 mg single oral dose, fed, 48 h post-dose
[13] = Group 5, 20 mg single oral dose, fed, 54 h post-dose
[14] = Group 5, 20 mg single oral dose, fed, 60 h post-dose
[15] = Group 5, 20 mg single oral dose, fed, 72 h post-dose
[16] = Group 6, 40 mg single oral dose, fasted, 12 h post-dose
[17] = Group 6, 40 mg single oral dose, fasted, 24 h post-dose
[18] = Group 6, 40 mg single oral dose, fasted, 30 h post-dose
[19] = Group 6, 40 mg single oral dose, fasted, 36 h post-dose

CC(C)(Sc1ccncc1-c1ccc(C#N)c2ccccc12)C(=O)O [2-((3-(4-cyanonaphthalen-1-yl)pyridin-4-yl)thio)-2-methylpropanoic acid]
% sUA reduction (from baseline) [1]: −52.6% and −46.1% and −45.9% and −45.2% and −52.5% and −48.2% | Absolute sUA concentration [1]: 3.7 mg/dL and 4.1 mg/dL and 4.0 mg/dL and 3.4 mg/dL and 2.8 mg/dL and 2.9 mg/dL | % sUA reduction (from baseline) [2]: −48.7% and −35.5% and −36.5% and −38.7% and −42.4% and −32.1% | Absolute sUA concentration [2]: 4.0 mg/dL and 4.9 mg/dL and 4.7 mg/dL and 3.8 mg/dL (2×) and 3.4 mg/dL | % sUA reduction (from baseline) [3]: −48.7% and −32.9% and −27.0% and −37.1% and −45.8% and −33.9% | Absolute sUA concentration [3]: 4.0 mg/dL and 5.1 mg/dL and 5.4 mg/dL and 3.9 mg/dL and 3.2 mg/dL and 3.7 mg/dL | % sUA reduction (from baseline) [4]: −46.2% and −32.9% and −29.7% and −35.5% and −45.8% and −35.7% | Absolute sUA concentration [4]: 4.2 mg/dL and 5.1 mg/dL and 5.2 mg/dL and 4.0 mg/dL and 3.2 mg/dL and 3.6 mg/dL | % sUA reduction (from baseline) [5]: −28.2% and −15.8% and −14.9% and −16.1% and −30.5% and −23.2% | Absolute sUA concentration [5]: 5.6 mg/dL and 6.4 mg/dL and 6.3 mg/dL and 5.2 mg/dL and 4.1 mg/dL and 4.3 mg/dL | % sUA reduction (from baseline) [6]: 0% | Absolute sUA concentration [6]: 8.1 mg/dL and 7.8 mg/dL and 7.6 mg/dL and 6.4 mg/dL and 6.3 mg/dL and 6.1 mg/dL | % sUA reduction (from baseline) [7]: −38.3% and −46.2% and −53.9% and −43.8% and −42.9% and −42.6% | Absolute sUA concentration [7]: 5.0 mg/dL and 4.2 mg/dL and 3.5 mg/dL (2×) and 3.6 mg/dL (2×) | % sUA reduction (from baseline) [8]: −50.6% and −52.6% and −68.4% and −60.9% and −52.4% and −54.1% | Absolute sUA concentration [8]: 4.0 mg/dL and 3.7 mg/dL and 2.4 mg/dL and 2.5 mg/dL and 3.0 mg/dL and 2.8 mg/dL | % sUA reduction (from baseline) [9]: −44.4% (2×) and −41.0% and −59.2% and −50.0% and −37.7% | Absolute sUA concentration [9]: 4.5 mg/dL and 4.6 mg/dL and 3.1 mg/dL and 3.2 mg/dL and 3.5 mg/dL and 3.8 mg/dL | % sUA reduction (from baseline) [10]: −46.9% and −46.2% and −56.6% and −53.1% and −49.2% and −36.1% | Absolute sUA concentration [10]: 4.3 mg/dL and 4.2 mg/dL and 3.3 mg/dL and 3.0 mg/dL and 3.2 mg/dL and 3.9 mg/dL | % sUA reduction (from baseline) [11]: −49.4% and −48.7% and −56.6% and −53.1% and −52.4% and −39.3% | Absolute sUA concentration [11]: 4.1 mg/dL and 4.0 mg/dL and 3.3 mg/dL and 3.0 mg/dL (2×) and 3.7 mg/dL | % sUA reduction (from baseline) [12]: −40.7% and −38.5% and −38.2% and −42.2% and −42.9% and −23.0% | Absolute sUA concentration [12]: 4.8 mg/dL (2×) and 4.7 mg/dL (2×) and 3.7 mg/dL and 3.6 mg/dL | % sUA reduction (from baseline) [13]: −43.2% and −38.5% and −38.2% and −42.2% and −42.9% and −27.9% | Absolute sUA concentration [13]: 4.6 mg/dL and 4.8 mg/dL and 4.7 mg/dL and 3.7 mg/dL and 3.6 mg/dL and 4.4 mg/dL | % sUA reduction (from baseline) [14]: −44.4% (2×) and −39.7% and −38.2% and −45.3% and −29.5% | Absolute sUA concentration [14]: 4.5 mg/dL and 4.7 mg/dL (2×) and 3.5 mg/dL (2×) and 4.3 mg/dL | % sUA reduction (from baseline) [15]: −34.6% and −29.5% and −26.3% and −29.7% and −33.3% and −18.0% | Absolute sUA concentration [15]: 5.3 mg/dL and 5.5 mg/dL and 5.6 mg/dL and 4.5 mg/dL and 4.2 mg/dL and 5.0 mg/dL | Absolute sUA concentration (Group 6, 40 mg single oral dose, fasted, 0 h (baseline)): 7.6 mg/dL and 7.4 mg/dL and 6.8 mg/dL and 6.1 mg/dL and 5.9 mg/dL and 5.7 mg/dL | Absolute sUA concentration (Group 6, 40 mg single oral dose, fasted, 6 h post-dose): 5.8 mg/dL and 3.6 mg/dL and 4.2 mg/dL and 2.8 mg/dL and 3.0 mg/dL and 3.3 mg/dL | % sUA change (from baseline) [16]: −69.5% and −59.6% | Absolute sUA concentration [16]: 4.5 mg/dL and 2.3 mg/dL (2×) and 3.2 mg/dL and 2.2 mg/dL and 1.8 mg/dL | % sUA change (from baseline) [17]: −47.4% and −63.5% and −51.5% and −55.7% and −71.2% and −56.1% | Absolute sUA concentration [17]: 4.0 mg/dL and 2.7 mg/dL (2×) and 3.3 mg/dL and 1.7 mg/dL and 2.5 mg/dL | % sUA change (from baseline) [18]: −53.9% and −66.2% and −58.8% and −55.7% and −74.6% and −54.4% | Absolute sUA concentration [18]: 3.5 mg/dL and 2.5 mg/dL and 2.8 mg/dL and 2.7 mg/dL and 1.5 mg/dL and 2.6 mg/dL | % sUA change (from baseline) [19]: −59.2% and −66.2% and −60.3% and −55.7% and −74.6% and −52.6% | Absolute sUA concentration [19]: 3.1 mg/dL and 2.5 mg/dL and 2.7 mg/dL (3×) and 1.5 mg/dL | Absolute sUA concentration (Group 6, 40 mg single oral dose, fasted, 48 h post-dose): 3.5 mg/dL (2×) and 3.7 mg/dL and 3.8 mg/dL and 2.6 mg/dL and 3.1 mg/dL | Absolute sUA concentration (Group 6, 40 mg single oral dose, fasted, 54 h post-dose): 3.3 mg/dL and 3.9 mg/dL and 3.4 mg/dL (2×) and 3.7 mg/dL and 2.7 mg/dL | Absolute sUA concentration (Group 6, 40 mg single oral dose, fasted, 60 h post-dose): 3.3 mg/dL and 3.7 mg/dL (2×) and 3.5 mg/dL and 2.8 mg/dL and 3.6 mg/dL | Absolute sUA concentration (Group 6, 40 mg single oral dose, fasted, 72 h post-dose): 4.5 mg/dL (2×) and 5.1 mg/dL and 4.9 mg/dL and 4.1 mg/dL and 4.6 mg/dL
